# Assay results taken from the supplement of paper PMC5393889.
# The other results are listed elsewhere or left out.
# Test system: Caenorhabditis elegans N2
# Assay: aldicarb interaction hit call (worm growth perturbed in combination with 10 uM aldicarb in both replicates, no effect as single agent) (binary (1 = interacts)); higher = interacts with aldicarb (growth perturbed)
# Settings: first compound 1.5 µM; aldicarb concentration 10 µM; 6 days; 20 °C
row,SMILES,aldicarb interaction hit call
1,COc1ccc(-c2noc(-c3cccc(C)c3)n2)cc1 [wact-13] + CNC(=O)O/N=C/C(C)(C)SC [aldicarb],inactive: 0
2,CNCc1ccc(OCc2ccc(Cl)cc2)cc1.Cl [wact-164] + CNC(=O)O/N=C/C(C)(C)SC [aldicarb],inactive: 0
3,C#CCN1C(=O)S/C(=C/c2cc(C)n(-c3cccc([N+](=O)[O-])c3)c2C)C1=O [wact-207] + CNC(=O)O/N=C/C(C)(C)SC [aldicarb],inactive: 0
4,Brc1ccc(-c2noc(-c3ccccc3)n2)cc1 [wact-184] + CNC(=O)O/N=C/C(C)(C)SC [aldicarb],inactive: 0
5,Cc1ccccc1NC(=S)NC(=O)c1cccs1 [wact-460] + CNC(=O)O/N=C/C(C)(C)SC [aldicarb],inactive: 0
6,CC(Oc1cccc(Cl)c1)c1nc(-c2ccncc2)no1 (stereo unspecified) [wact-83] + CNC(=O)O/N=C/C(C)(C)SC [aldicarb],inactive: 0
7,COc1ccc2nc(NC(=O)C3CCCO3)sc2c1 (stereo unspecified) [wact-523] + CNC(=O)O/N=C/C(C)(C)SC [aldicarb],inactive: 0
8,O=C(Nc1ccc(Cl)cc1)c1ccc(CN2CCc3ccccc3C2)cc1 [wact-9] + CNC(=O)O/N=C/C(C)(C)SC [aldicarb],inactive: 0
9,O=C(Nc1cccc(C(F)(F)F)c1)c1ccc(Cl)cc1Cl [wact-22] + CNC(=O)O/N=C/C(C)(C)SC [aldicarb],active: 1
10,COc1c(Cl)cccc1NC(=O)c1cccc(Cl)c1 [wact-509] + CNC(=O)O/N=C/C(C)(C)SC [aldicarb],inactive: 0
11,COc1cc(C2NC(=S)NC(c3ccccc3)=C2C(C)=O)cc(Br)c1OC(C)C (stereo unspecified) [wact-225] + CNC(=O)O/N=C/C(C)(C)SC [aldicarb],inactive: 0

# Pulled one by one from the list above, 2 records:
row,SMILES,aldicarb interaction hit call
6,CC(Oc1cccc(Cl)c1)c1nc(-c2ccncc2)no1 (stereo unspecified) [wact-83] + CNC(=O)O/N=C/C(C)(C)SC [aldicarb],inactive: 0
8,O=C(Nc1ccc(Cl)cc1)c1ccc(CN2CCc3ccccc3C2)cc1 [wact-9] + CNC(=O)O/N=C/C(C)(C)SC [aldicarb],inactive: 0
